# Data published in patent publication US8038997B2, “Anti-marinobufagenin antibodies and methods for their use” (priority 2005, dated 2011).
# For some assays here: At least one structure is not confirmed: it was looked up by name or label, or the drawing left a doubt. Some results were stated once for a whole list of compounds, not compound by compound.
# Experiments:
# 3E9 mAb = test: Cross-reactivity of the 3E9 mAb (50% displacement of bound MBG); type: binding, mouse; conditions: amount of MBG for 50% displacement versus amount of cross-reactant
# From the text: The percent cross-reactivity of the 3E9, 4G4 and 4H2 mAbs was defined as the ratio of the amount of MBG required to displace 50% of maximally bound MBG from the particular anti-MBG mAb, versus the amount of the cross-reactant to give the same 50% displacement. The binding specificities of the 3E9 mAb for a panel of steroids are shown in Table I; those for the 4112 and 4G4 mAbs are shown in Table II.
# antibodies to MBG = test: Cross-reactivity of antibodies produced by immunization with MBG-BSA conjugate; type: binding, rat
SMILES,Percent cross-immunoreactivity (3E9 mAb),cross-reactivity (antibodies to MBG)
C[C@]12CC[C@H](O)C[C@H]1CC[C@@H]1[C@@H]2C[C@@H](O)[C@]2(C)[C@@H](C3=CC(=O)OC3)CC[C@]12O [Digoxigenin],1%,–
C[C@H]1O[C@@H](O[C@H]2[C@@H](O)C[C@H](O[C@H]3[C@@H](O)C[C@H](O[C@H]4CC[C@@]5(C)[C@H](CC[C@@H]6[C@@H]5C[C@@H](O)[C@]5(C)[C@@H](C7=CC(=O)OC7)CC[C@]65O)C4)O[C@@H]3C)O[C@@H]2C)C[C@H](O)[C@@H]1O [Digoxin],–,< 1%
C[C@@H]1O[C@@H](O[C@H]2C[C@@H](O)[C@]3(CO)[C@H]4[C@H](O)C[C@]5(C)[C@@H](C6=CC(=O)OC6)CC[C@]5(O)[C@@H]4CC[C@]3(O)C2)[C@H](O)[C@H](O)[C@H]1O [Ouabain],–,< 1%
CC(=O)[C@H]1CC[C@H]2[C@@H]3CCC4=CC(=O)CC[C@]4(C)[C@H]3CC[C@]12C [Progesterone],–,< 1%
C[C@]12CCC(=O)C=C1CC[C@@H]1[C@@H]2[C@@H](O)C[C@]2(C=O)[C@@H](C(=O)CO)CC[C@@H]12 [aldosterone],–,< 1%
